# Experimental data: PubChem BioAssay AID1259308 (NCATS, 2017)
# Test: 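Candidate targets for better recombinant protein yield in mammalian cells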 (primary screen)
# System: human HEK293 embryonic kidney cells stably expressing firefly luciferase (HEK-CMV-Luc2-Hygro)
# Reagents: single siRNA against human genes, 0.8 pmol siRNA per well
# Timing: 72 h
# Read-out: 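Reporter luminescence and viable-cell signal on separate replicate plates, given as percent of non-targeting control and median/MAD z-scores, plus per-cell luciferase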
# Reading the numbers: total luciferase, z-score and total luciferase, % of control: higher = more reporter protein produced; luciferase per cell, z-score: higher = more reporter output per viable cell; viable cells, % of control: higher = more viable cells
# Call rule: 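Active when the median/MAD z-score for overall luciferase is greater than 3; a gene was taken forward for validation with new siRNAs if at least two of its three siRNAs passed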
# Calls: active = raised luciferase; inactive = no rise
# This is one part, drawn at random, of about 59,000 reagents. About 1,510 of them (2.6%) were called active. 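Calls use total luciferase alone and ignore viability, so some active siRNAs may act by altering cell number.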 Entries without a mark were called inactive. Reagents against one gene are numbered here. No sequences are given here.
The first 7 entries, ahead of the listing:
Target gene,reagent no.,"total luciferase, z-score","total luciferase, % of control","luciferase per cell, z-score","viable cells, % of control"
NFU1,1,-0.954,62.9,-1.05,92.6
NFU1,2,-0.332,75.3,-0.604,98.6
NFU1,3,-0.472,72.5,0.334,74.2
SLFNL1,1,-0.199,77.9,0.0417,86.1
SLFNL1,2,0.505,91.9,-0.0735,105
SLFNL1,3,1.22,106,1.08,89.3
RAB40A,1,-0.324,75.4,-0.574,98.1

Results, repeating the preview:
Target gene,reagent no.,"total luciferase, z-score","total luciferase, % of control","luciferase per cell, z-score","viable cells, % of control"
NFU1,1,-0.954,62.9,-1.05,92.6
NFU1,2,-0.332,75.3,-0.604,98.6
NFU1,3,-0.472,72.5,0.334,74.2
SLFNL1,1,-0.199,77.9,0.0417,86.1
SLFNL1,2,0.505,91.9,-0.0735,105
SLFNL1,3,1.22,106,1.08,89.3
RAB40A,1,-0.324,75.4,-0.574,98.1
RAB40A,2,-2.85,25.2,-4.2,85.1
RAB40A,3,-1.51,51.9,-1.81,93.5
LYST,1,0.189,85.7,-0.426,107
LYST,2,-0.418,73.6,0.271,76.6
LYST,3,0.478,91.4,0.107,99.3
EVC,1,-0.619,69.6,-0.439,87.3
EVC,2,-0.575,70.5,-0.926,100
EVC,3,0.346,88.8,0.364,90.1
CA5A,1,-1.24,57.3,-0.43,71.7
CA5A,2,-1.91,44,-1.46,72.1
CA5A,3,-0.684,68.3,0.746,62.7
CHD3,1,0.0962,83.8,0.152,90
CHD3,2,1.86,119,2.32,72.1
CHD3,3,-0.579,70.4,-0.372,86.7
CSF2RA,1,0.73,96.4,0.847,86.2
CSF2RA,2,-0.924,63.5,-1.05,93.5
CSF2RA,3,-0.666,68.6,-0.946,98.4
SPMIP2,1,-1.04,61.1,-0.852,85.5
SPMIP2,2,0.194,85.7,-0.277,103
SPMIP2,3,-1.06,60.9,-0.668,81.1
BLK,1,0.0832,83.5,-0.228,99.1
BLK,2,0.056,83,-0.434,104
BLK,3,0.267,87.2,0.871,77.5
SELP,1,-0.324,75.4,-1.07,112
SELP,2,-0.517,71.6,-0.457,90.2
SELP,3,1.97,121,1.03,103
SH3BGRL,1,1.83,118,1.94,79.3
SH3BGRL,2,-0.129,79.3,0.206,84
SH3BGRL,3,-0.943,63.1,0.535,61.3
ATP6V1C1,1,-0.119,79.5,0.495,78
ATP6V1C1,2,2.99,141,1.42,109
ATP6V1C1,3,0.352,88.9,-0.434,111
TESK1,1,0.777,97.3,1.24,78.6
TESK1,2,1.57,113,1.22,91.7
TESK1,3,0.0827,83.5,-0.287,101
OIT3,1,-0.872,64.5,-0.957,92.8
OIT3,2,-1.33,55.4,-1.31,87.4
OIT3,3,1.35,109,1.34,85.4
KRTAP4-12,1,1.42,110,1.31,87.1
KRTAP4-12,2,-0.613,69.7,-0.93,99.5
KRTAP4-12,3,-0.436,73.2,-0.96,105
CALHM5,1,1.98,121,1.23,98.1
CALHM5,2,1.71,116,1.13,96.2
CALHM5,3,-2.11,40,-1.01,58.2
OR4F29,1,0.099,83.9,0.192,89.1
OR4F29,2,0.93,100,0.447,99.7
OR4F29,3,-2.29,36.3,-1.76,64.5
OLAH,1,0.296,87.8,0.00575,97.9
OLAH,2,2.15,125,1.68,89.4
OLAH,3,-0.594,70.1,-0.951,101
